From US20090138978A1
These are yes or no findings as the source states them, for the method shown. In cells and extracts the contact can be indirect. Some results given as binding are weak or reduced against the parent protein; the word gives no strength.

Chains of the proteins cited; added tags and fusions are not shown. Lines headed by an entry give the natural chain unless they say otherwise; changes in a name come on top. Residues count along the entry.
UniProt P52947: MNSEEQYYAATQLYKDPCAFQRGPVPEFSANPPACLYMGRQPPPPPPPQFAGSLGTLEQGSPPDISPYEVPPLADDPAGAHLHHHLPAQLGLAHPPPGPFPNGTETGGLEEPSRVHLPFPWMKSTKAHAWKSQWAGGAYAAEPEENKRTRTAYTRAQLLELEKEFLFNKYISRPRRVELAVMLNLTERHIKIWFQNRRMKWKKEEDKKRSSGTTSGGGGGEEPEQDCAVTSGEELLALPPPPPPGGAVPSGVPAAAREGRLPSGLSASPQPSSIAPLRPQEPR
GST-PDX-1 (1-206): residues 1-206 of P52947
GST-p300 (1-595) (Q09472, residues 1-595): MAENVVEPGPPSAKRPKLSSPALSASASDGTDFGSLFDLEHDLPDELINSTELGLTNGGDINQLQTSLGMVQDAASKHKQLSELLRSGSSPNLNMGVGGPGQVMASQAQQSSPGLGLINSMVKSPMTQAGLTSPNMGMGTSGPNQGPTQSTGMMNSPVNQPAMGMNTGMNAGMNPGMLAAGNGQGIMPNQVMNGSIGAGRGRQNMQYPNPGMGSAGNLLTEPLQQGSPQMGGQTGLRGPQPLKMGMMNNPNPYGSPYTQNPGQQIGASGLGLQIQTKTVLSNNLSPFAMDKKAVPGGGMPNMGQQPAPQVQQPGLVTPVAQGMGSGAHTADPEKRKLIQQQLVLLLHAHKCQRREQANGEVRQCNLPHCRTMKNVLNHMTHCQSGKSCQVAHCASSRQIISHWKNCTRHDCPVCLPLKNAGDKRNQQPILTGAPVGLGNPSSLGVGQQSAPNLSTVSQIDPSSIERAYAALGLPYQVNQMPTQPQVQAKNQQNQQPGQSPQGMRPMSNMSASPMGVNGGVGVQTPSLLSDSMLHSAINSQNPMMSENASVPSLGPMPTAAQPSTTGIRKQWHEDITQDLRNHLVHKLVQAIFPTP
GST-p300 (744-1571) (Q09472, residues 744-1571): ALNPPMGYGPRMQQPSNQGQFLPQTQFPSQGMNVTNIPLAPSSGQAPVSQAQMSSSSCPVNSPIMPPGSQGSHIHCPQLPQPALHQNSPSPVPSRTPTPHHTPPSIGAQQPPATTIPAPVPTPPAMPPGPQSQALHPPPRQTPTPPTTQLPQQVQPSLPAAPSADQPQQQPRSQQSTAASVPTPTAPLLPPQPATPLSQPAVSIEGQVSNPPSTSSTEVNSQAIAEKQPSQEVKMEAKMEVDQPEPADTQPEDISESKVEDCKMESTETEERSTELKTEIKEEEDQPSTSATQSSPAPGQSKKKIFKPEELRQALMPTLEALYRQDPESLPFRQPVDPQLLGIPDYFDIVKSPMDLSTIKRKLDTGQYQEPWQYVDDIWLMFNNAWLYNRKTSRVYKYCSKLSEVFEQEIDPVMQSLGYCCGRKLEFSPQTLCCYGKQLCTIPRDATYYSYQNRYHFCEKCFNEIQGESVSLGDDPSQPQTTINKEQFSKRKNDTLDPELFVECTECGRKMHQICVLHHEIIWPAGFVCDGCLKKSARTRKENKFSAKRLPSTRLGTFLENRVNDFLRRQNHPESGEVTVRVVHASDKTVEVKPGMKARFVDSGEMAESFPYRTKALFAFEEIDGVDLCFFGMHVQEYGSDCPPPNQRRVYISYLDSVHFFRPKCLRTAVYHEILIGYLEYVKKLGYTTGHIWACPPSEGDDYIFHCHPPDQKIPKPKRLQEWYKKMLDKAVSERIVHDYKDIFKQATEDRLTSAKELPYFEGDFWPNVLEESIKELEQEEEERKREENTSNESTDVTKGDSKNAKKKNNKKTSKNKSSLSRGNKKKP

How the values were obtained:
GST-PDX-1 (1-206) (rat) [1] = target: GST-PDX-1 (1-206) (rat) (UniProt P52947); test: GST pull-down, autoradiogram (FIG. 23c)
GST-p300 (1-595) = GST-p300 (1-595) (UniProt Q09472); test: GST pull-down with [35S]-labelled in vitro translated Bridge-1
GST-p300 (744-1571) = GST-p300 (744-1571) (UniProt Q09472); test: as above
GST-PDX-1 (1-206) (rat) [2] = target: GST-PDX-1 (1-206) (rat) (UniProt P52947); test: GST pull-down with [35S]-labelled in vitro translated rat Bridge-1
[3] = target: GST-PDX-1 (full-length rat PDX-1) (rat) (UniProt P52947); test: as above

Measured: binding

B1: rat Bridge-1 (full-length, 1-222) (protein)
chain: MSSEEVRHRAESSEARAAAVSDIQELMRRKEEIEAQIKANYDVLESQKGIGMNEPLVDCEGYPRADVDLYQVRTARHNIICLQNDHKALMKQVEEALHQLHARDKEKQARDMAEAREEAMNRRLASDSPALPKAFARVNSISPGSPASIAGLQVDDEIVEFGSVNTQNFQSLQNVGTVVQHSEGKPLNVMVIRRGEKHQLRLTPTRWAGKGLLGCNITPLQR
modifications: [35S]-methionine labelled in the pull-down assays
binds: GST-PDX-1 (1-206) (rat) [1] | GST-p300 (1-595) | GST-p300 (744-1571) | GST-PDX-1 (1-206) (rat) [2] | [3]
